# Percent effect of library compounds

Protein sequences, listed by entry. Tags and fused reporters are not part of them. Residues count along the entry.
UniProt I6X8D2, whole entry: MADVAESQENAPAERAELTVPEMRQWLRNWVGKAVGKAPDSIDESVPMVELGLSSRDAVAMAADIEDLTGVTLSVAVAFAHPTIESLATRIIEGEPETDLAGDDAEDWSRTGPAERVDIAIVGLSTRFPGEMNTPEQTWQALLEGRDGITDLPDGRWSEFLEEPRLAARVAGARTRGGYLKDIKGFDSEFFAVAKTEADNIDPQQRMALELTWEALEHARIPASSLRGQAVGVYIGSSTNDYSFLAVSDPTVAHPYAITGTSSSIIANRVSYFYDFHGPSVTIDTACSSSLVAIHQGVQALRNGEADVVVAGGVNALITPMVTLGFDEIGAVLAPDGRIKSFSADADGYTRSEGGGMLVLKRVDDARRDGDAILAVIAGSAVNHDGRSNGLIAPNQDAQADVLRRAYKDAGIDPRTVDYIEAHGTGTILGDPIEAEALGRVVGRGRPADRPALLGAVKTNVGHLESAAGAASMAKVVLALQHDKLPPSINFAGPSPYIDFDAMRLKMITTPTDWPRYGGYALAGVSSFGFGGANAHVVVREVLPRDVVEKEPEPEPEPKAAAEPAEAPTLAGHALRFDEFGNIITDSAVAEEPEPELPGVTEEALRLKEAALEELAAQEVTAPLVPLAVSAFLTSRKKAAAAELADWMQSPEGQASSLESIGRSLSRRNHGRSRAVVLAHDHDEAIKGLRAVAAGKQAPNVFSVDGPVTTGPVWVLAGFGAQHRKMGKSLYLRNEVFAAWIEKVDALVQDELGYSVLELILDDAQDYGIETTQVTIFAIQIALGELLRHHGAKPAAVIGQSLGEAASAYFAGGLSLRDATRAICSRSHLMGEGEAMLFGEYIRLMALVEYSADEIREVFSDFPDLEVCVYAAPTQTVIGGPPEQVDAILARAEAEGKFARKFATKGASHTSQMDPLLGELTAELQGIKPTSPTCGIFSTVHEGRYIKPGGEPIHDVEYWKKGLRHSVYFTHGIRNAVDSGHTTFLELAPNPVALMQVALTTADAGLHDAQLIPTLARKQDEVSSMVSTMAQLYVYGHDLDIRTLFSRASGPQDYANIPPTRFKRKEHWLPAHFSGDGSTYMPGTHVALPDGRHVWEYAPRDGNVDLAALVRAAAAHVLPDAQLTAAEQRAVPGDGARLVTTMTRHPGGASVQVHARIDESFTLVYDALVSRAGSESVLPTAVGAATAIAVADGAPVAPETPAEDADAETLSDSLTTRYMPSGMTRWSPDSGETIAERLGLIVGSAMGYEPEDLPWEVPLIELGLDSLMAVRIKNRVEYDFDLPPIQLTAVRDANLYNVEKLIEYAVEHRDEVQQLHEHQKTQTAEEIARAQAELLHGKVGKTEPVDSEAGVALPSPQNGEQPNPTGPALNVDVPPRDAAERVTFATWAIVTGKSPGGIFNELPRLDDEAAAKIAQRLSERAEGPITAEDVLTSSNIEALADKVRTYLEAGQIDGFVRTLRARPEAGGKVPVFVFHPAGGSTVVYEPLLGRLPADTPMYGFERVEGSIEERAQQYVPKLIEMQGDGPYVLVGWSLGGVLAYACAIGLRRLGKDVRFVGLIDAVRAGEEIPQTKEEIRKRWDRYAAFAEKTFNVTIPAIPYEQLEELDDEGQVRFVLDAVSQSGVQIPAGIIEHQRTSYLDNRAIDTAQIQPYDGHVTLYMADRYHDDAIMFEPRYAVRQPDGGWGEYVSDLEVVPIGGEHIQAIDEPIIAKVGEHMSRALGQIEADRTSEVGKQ
UniProt Q8IDJ8, 1-583: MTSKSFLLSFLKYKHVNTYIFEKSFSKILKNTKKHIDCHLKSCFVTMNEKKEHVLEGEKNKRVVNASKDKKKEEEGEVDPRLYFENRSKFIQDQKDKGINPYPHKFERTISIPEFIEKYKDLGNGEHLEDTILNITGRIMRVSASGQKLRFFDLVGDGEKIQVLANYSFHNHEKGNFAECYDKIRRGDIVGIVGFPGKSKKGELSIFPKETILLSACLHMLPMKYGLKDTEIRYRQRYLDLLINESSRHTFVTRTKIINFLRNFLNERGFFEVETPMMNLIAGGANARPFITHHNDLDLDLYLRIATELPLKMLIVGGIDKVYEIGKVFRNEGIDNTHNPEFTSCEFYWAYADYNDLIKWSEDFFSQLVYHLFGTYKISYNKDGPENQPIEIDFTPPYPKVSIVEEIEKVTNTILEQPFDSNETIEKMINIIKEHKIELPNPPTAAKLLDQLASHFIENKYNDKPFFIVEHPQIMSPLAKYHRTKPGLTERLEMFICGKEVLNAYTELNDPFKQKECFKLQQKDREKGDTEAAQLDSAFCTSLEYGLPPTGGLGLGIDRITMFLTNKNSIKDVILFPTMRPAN
UniProt A4I591, 1-473: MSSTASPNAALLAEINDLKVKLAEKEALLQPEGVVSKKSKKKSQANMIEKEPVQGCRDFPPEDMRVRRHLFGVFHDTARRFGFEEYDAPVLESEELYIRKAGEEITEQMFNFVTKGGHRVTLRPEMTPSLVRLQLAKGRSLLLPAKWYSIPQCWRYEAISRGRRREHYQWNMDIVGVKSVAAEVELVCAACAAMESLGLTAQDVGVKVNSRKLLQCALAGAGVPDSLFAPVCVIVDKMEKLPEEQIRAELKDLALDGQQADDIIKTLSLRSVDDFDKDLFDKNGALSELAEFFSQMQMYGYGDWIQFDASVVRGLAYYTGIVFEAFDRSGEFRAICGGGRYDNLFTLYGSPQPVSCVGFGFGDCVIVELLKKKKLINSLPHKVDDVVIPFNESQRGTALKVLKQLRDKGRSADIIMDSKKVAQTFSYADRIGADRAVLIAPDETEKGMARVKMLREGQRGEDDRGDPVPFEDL
UniProt P9WFT3, whole entry: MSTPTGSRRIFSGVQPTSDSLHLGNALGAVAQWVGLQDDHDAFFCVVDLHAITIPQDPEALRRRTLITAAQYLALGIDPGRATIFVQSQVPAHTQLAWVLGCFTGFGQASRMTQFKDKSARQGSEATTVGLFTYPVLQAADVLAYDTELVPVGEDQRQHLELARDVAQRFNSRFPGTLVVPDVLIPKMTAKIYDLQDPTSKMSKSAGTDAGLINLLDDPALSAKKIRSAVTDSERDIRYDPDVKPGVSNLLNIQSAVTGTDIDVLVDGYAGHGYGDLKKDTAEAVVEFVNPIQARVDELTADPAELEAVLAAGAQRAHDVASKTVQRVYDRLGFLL

Pks13 thioesterase: 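Enzyme assay of the thioesterase domain of polyketide synthase 13; the read-out is not stated. Target: Polyketide synthase Pks13, Mycobacterium tuberculosis (UniProt I6X8D2). Compounds at 30 µM. The record gives no direction; the compounds picked for IC50 retests had high values, so higher reads as stronger inhibition. Size under these conditions: about 67,000 compounds, about 300 of them at 50% or above in at least one test.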
PfKRS1: 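Lysine-tRNA ligase, Plasmodium falciparum 3D7 (UniProt Q8IDJ8). Enzyme assay of the cytosolic lysyl-tRNA synthetase in 384-well plates, read by luminescence. Concentration: 30 µM. Higher reads as stronger inhibition, judged from the few compounds that gave an IC50. Of about 69,000 compounds tested this way, about 49 (0.071%) reached 50% or more in at least one test.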
LiHisRS: 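Enzyme assay of histidyl-tRNA synthetase; the read-out is not stated. Target: Histidine-tRNA ligase, Leishmania infantum (UniProt A4I591). Concentration: 30 µM. Direction is inferred from retests: higher values go with stronger inhibition. The assay is labelled LdHisRS but filed under L. infantum. Size under these conditions: about 69,000 compounds, about 410 of them at 50% or above in at least one test.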
MtTrpRS: 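Enzyme assay of tryptophanyl-tRNA synthetase; the read-out is not stated. Target: Tryptophan-tRNA ligase, Mycobacterium tuberculosis (UniProt P9WFT3). Concentration: 10 µM. Higher most likely means stronger inhibition; the record gives no direction and few retests gave an IC50. Size under these conditions: about 65,000 compounds, about 64 of them at 50% or above in at least one test.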

The filed quantity is “Percent Effect” (%).
The record does not define 0% and 100%; most values in the screen are far below 50% and negative numbers occur (in some assays of this library far below -100).
The compounds are a random part of those screened.

For O=C(COCc1ccccc1)N1CCCC1c1noc(C2CC2)n1 (stereo not given) the result was Pks13 thioesterase: -10.34%; PfKRS1: -0.6888%; LiHisRS: 7.018%; MtTrpRS: -3.455%.
For O=C([C@H]1COC[C@H]2CN(C3CCCC3)C[C@H]21)N1CCCCO1 the result was Pks13 thioesterase: -0.9648%; PfKRS1: 4.817%; LiHisRS: 7.547%; MtTrpRS: -3.882%.
For COCCN1C(=O)[C@H]2CC[C@@H]1CN(c1nccc(C)n1)C2 the result was Pks13 thioesterase: -14.39%; PfKRS1: -1.512%; LiHisRS: 18.75%; MtTrpRS: 2.812%.
For CCCNC(=O)CCOc1cccc(F)c1 the result was Pks13 thioesterase: -36.07%; PfKRS1: -1.161%; LiHisRS: 12.84%; MtTrpRS: -1.56%.
For CC(C)(C)c1nc(CNc2cc3c(cc2Cl)NC(=O)CO3)no1 the result was Pks13 thioesterase: 0.07464%; PfKRS1: -2.121%; LiHisRS: 6.667%; MtTrpRS: -1.212%.
For CCN(Cc1ccoc1)C(C(N)=O)c1cccc(Br)c1 (stereo not given) the result was Pks13 thioesterase: -54.14%; PfKRS1: 2.23%; LiHisRS: 8.602%; MtTrpRS: -3.077%.
For CC1CCN(CCNC(=O)C(C)n2cncn2)CC1 (stereo not given) the result was Pks13 thioesterase: -22.64%; PfKRS1: 1.931%; LiHisRS: 18.42%; MtTrpRS: 3.123%.
For COc1ccc(N2CCC(C(=O)/N=c3/[nH]ccs3)CC2)nn1 the result was Pks13 thioesterase: -30.66%; PfKRS1: 3.813%; LiHisRS: 11.65%; MtTrpRS: 2.613%.
For CC(C)C(O)CNC(=O)Nc1cnn(C(C)C)c1 (stereo not given) the result was Pks13 thioesterase: -2.374%; PfKRS1: 10.7%; LiHisRS: 11.71%; MtTrpRS: 0.3799%.
For CC(Cn1ccnc1)NC(=O)C1(c2ccc(F)cc2)CC1 (stereo not given) the result was Pks13 thioesterase: -56.06%; PfKRS1: 7.478%; LiHisRS: 28.09%; MtTrpRS: 6.216%.
For CN1CCCc2cc(CNC(=O)c3ccc(-n4cnnc4)cc3)ccc21 the result was Pks13 thioesterase: 0.64%; PfKRS1: 0.4408%; LiHisRS: 15.79%; MtTrpRS: 0.04733%.
For O=C(CCc1nc(Cl)n[nH]1)N1C[C@H](CO)C[C@H](CN2CCCC2)C1 the result was Pks13 thioesterase: -22.5%; PfKRS1: 0.7348%; LiHisRS: 3.665%; MtTrpRS: -0.289%.
For N#Cc1ccc(N2CCN(c3ccc4nncn4n3)CC2)nc1 the result was Pks13 thioesterase: -14.74%; PfKRS1: 1.397%; LiHisRS: 16.44%; MtTrpRS: -4.298%.
For O=C(O)[C@@H]1CN(C(=O)c2ccc(F)c(F)c2)C[C@H]1c1cccc(F)c1 the result was Pks13 thioesterase: -4.824%; PfKRS1: -29.13%; LiHisRS: 9.574%; MtTrpRS: 2.886%.
For COCCNc1c(C#N)c2c(c3nncn13)CN(C)CC2 the result was Pks13 thioesterase: -1.465%; PfKRS1: 5.827%; LiHisRS: 18.42%; MtTrpRS: 1.977%.
For CCN(CC)Cc1ccc(C(=O)NC2CCc3cc(Cl)ccc32)o1 (stereo not given) the result was Pks13 thioesterase: -12.2%; PfKRS1: -2.262%; LiHisRS: 20%; MtTrpRS: 15.45%.
For CC(=O)N1CCC2(CC1)CC[C@@]1(C(=O)N(C)C)CN(S(C)(=O)=O)C[C@@H]21 the result was Pks13 thioesterase: -20.27%; PfKRS1: -1.656%; LiHisRS: 13.21%; MtTrpRS: -1.341%.
For CCOc1ccc(S(=O)(=O)NC(=O)c2c(C)noc2C(C)C)cc1 the result was Pks13 thioesterase: -2.425%; PfKRS1: 1.022%; LiHisRS: 7.547%; MtTrpRS: 0.9893%.
For CCCn1ncc(CN(Cc2cccnc2)Cc2ccsc2)c1C the result was Pks13 thioesterase: -13.66%; PfKRS1: 3.278%; LiHisRS: 10.42%; MtTrpRS: 1.142%.
For Cc1ccc(OCCC(=O)N2CCC(c3nncn3C)CC2)c(C)c1 the result was Pks13 thioesterase: -2.204%; PfKRS1: 1.223%; LiHisRS: 5.357%; MtTrpRS: 20.25%.
For CC(NC(=O)Nc1cnn(CC(N)=O)c1)c1ccc(Cl)s1 (stereo not given) the result was Pks13 thioesterase: -36.66%; PfKRS1: 7.025%; LiHisRS: 13.33%; MtTrpRS: -1.451%.
For CCOCCN1CCN(C(C)c2nc(C3CC3)no2)CC1 (stereo not given) the result was PfKRS1: 0.3727%; LiHisRS: 0%; MtTrpRS: 16.84%.
For Cc1nn(C)c2ncc(NC(=O)N3CCNC(=O)C3)cc12 the result was Pks13 thioesterase: -21.01%; PfKRS1: 3.062%; LiHisRS: -30.36%; MtTrpRS: 2.369%.
For CCCN1CCCn2c(nc(CNC(=O)c3cnoc3C)cc2=O)C1 the result was Pks13 thioesterase: -12.84%; PfKRS1: 6.653%; LiHisRS: 7.965%; MtTrpRS: -3.434%.
For Cc1nc(C)c(C(C)NCc2c(C)nn(CC(C)C)c2N(C)C)s1 (stereo not given) the result was Pks13 thioesterase: -19.6%; PfKRS1: 4.963%; LiHisRS: 13.39%; MtTrpRS: 4.707%.
For COCCN1CCN(C(=O)c2ccc(COC)o2)[C@H]2CS(=O)(=O)C[C@H]21 the result was Pks13 thioesterase: -6.712%; PfKRS1: -0.3054%; LiHisRS: 21.33%; MtTrpRS: 10.15%.
For Cc1cnn(CCCOc2ccc3c(c2)OCO3)c1 the result was Pks13 thioesterase: -12.29%; PfKRS1: 3.376%; LiHisRS: 20.69%; MtTrpRS: -1.122%.
For Cc1noc(OCCOc2cccc(C#N)c2)n1 the result was Pks13 thioesterase: -11.79%; PfKRS1: 3.096%; LiHisRS: 15.56%; MtTrpRS: -0.7407%.
For COc1ccc(-n2cccn2)c(CN2CCC(O)(CO)CC2)c1 the result was Pks13 thioesterase: -12.15%; PfKRS1: 3.495%; LiHisRS: 18.37%; MtTrpRS: 0.768%.
For O=C(NC1CCC1)[C@@H]1CC[C@@H]2[C@@H](CCN2CCc2ccccc2)O1 the result was Pks13 thioesterase: -21.64%; PfKRS1: 8.767%; LiHisRS: 18%; MtTrpRS: -2.371%.
For CNC(=O)CCS(=O)(=O)Cc1cc(Cl)c2c(c1)OCCO2 the result was Pks13 thioesterase: 3.137%; PfKRS1: -0.03946%; LiHisRS: 11.86%; MtTrpRS: -3.897%.
For CCN(Cc1noc(C2CCC2)n1)C(=O)CCc1cc2n(n1)CCNC2 the result was Pks13 thioesterase: -26.59%; PfKRS1: 3.405%; LiHisRS: 0%; MtTrpRS: 0.2901%.
For CCn1nc(C)cc1C(=O)NCc1noc(C(C)(C)C)n1 the result was Pks13 thioesterase: -1.203%; PfKRS1: -5.244%; LiHisRS: 4.762%; MtTrpRS: 1.872%.

From ChEMBL document CHEMBL3988442, “University of Dundee, Small-Polar-MMV Screening Library” (2021).